Experimental data: PubChem BioAssay AID686938 (Drosophila RNAi Screening Center, 2013)
The screen tested about 23,000 reagents; below is a random part of those that have a named target and a result. Over the whole deposit, 75 (0.33%) are marked active. 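Raw plate signals without normalisation; calls rest on plate z-scores that were not deposited; ratio present for only 364 wells.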 The numbers tell different reagents against one gene apart. No sequences are given here. Not stated in the record: the dose of the treatment.

- Purpose: 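Fly genes required for calcium entry once internal stores are emptied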 (primary screen)
- System: Drosophila S2R+ cells
- Reagents: long dsRNA against Drosophila genes, about 0.25 µg dsRNA per well, roughly 10,000 cells
- Time to read-out: 5 days of knock-down before the calcium assay
- Conditions: thapsigargin (SERCA pump blocker) to empty calcium stores; entry signal taken 4 min after adding it
- Read-out: 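Per-well fluo-4 fluorescence in two replicates, unnormalised, measured in resting cells and 4 min after store depletion by the SERCA blocker thapsigargin; ratio of the two present in few wells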
- Direction: calcium entry signal: higher = stronger calcium signal after store depletion; resting calcium signal: higher = higher resting calcium signal
- Units: calcium entry signal in fluorescence units; resting calcium signal in fluorescence units
- Rule for the call: 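Hit if the duplicate-averaged plate z-score for entry over resting signal is under −3; wells with weak total dye signal (Fmax z < −2) or more than 5 off-targets removed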
- Calls: active = strongly reduced calcium entry; inactive = no strong reduction

After knock-down of stum (stumble) #1, the record shows calcium entry signal, replicate 1 = 5.07e7; calcium entry signal, replicate 2 = 4.59e7; resting calcium signal, replicate 1 = 2.24e7; resting calcium signal, replicate 2 = 2.10e7; inactive. With knock-down of stum (stumble) #2, the record shows calcium entry signal, replicate 1 = 4.64e7; calcium entry signal, replicate 2 = 4.10e7; resting calcium signal, replicate 1 = 1.95e7; resting calcium signal, replicate 2 = 1.78e7; inactive. Against thetaTry (thetaTrypsin), the entry reads calcium entry signal, replicate 1 = 2.77e7; calcium entry signal, replicate 2 = 4.63e7; resting calcium signal, replicate 1 = 1.37e7; resting calcium signal, replicate 2 = 1.82e7; inactive. Knock-down of CG7099 resulted in: calcium entry signal, replicate 1 = 4.17e7; resting calcium signal, replicate 1 = 2.05e7; inactive. Knock-down of CG12917 resulted in: calcium entry signal, replicate 1 = 2.68e7; calcium entry signal, replicate 2 = 3.93e7; resting calcium signal, replicate 1 = 1.30e7; resting calcium signal, replicate 2 = 1.57e7; inactive. Against CG33493 the deposit lists calcium entry signal, replicate 1 = 2.46e7; calcium entry signal, replicate 2 = 2.97e7; resting calcium signal, replicate 1 = 1.26e7; resting calcium signal, replicate 2 = 1.31e7; inactive.

For CG33784, the entry reads calcium entry signal, replicate 1 = 3.56e7; calcium entry signal, replicate 2 = 6.20e7; resting calcium signal, replicate 1 = 1.70e7; resting calcium signal, replicate 2 = 2.73e7; inactive. CG30479 showed calcium entry signal, replicate 1 = 2.70e7; calcium entry signal, replicate 2 = 4.50e7; resting calcium signal, replicate 1 = 1.40e7; resting calcium signal, replicate 2 = 1.79e7; inactive. Against orb (oo18 RNA-binding protein) #1 the deposit lists calcium entry signal, replicate 1 = 2.22e7; calcium entry signal, replicate 2 = 2.16e7; resting calcium signal, replicate 1 = 1.39e7; resting calcium signal, replicate 2 = 1.26e7; inactive. After knock-down of orb (oo18 RNA-binding protein) #2 the results were calcium entry signal, replicate 1 = 4.38e7; calcium entry signal, replicate 2 = 3.06e7; resting calcium signal, replicate 1 = 2.39e7; resting calcium signal, replicate 2 = 1.34e7; inactive. CG33306 gave calcium entry signal, replicate 1 = 4.33e7; resting calcium signal, replicate 1 = 2.09e7; inactive. Against CG8170, the values are calcium entry signal, replicate 1 = 4.15e7; calcium entry signal, replicate 2 = 4.03e7; resting calcium signal, replicate 1 = 1.90e7; resting calcium signal, replicate 2 = 1.79e7; inactive.

Against CG34458, the values are calcium entry signal, replicate 1 = 4.31e7; calcium entry signal, replicate 2 = 5.78e7; resting calcium signal, replicate 1 = 1.97e7; resting calcium signal, replicate 2 = 2.69e7; inactive. CG34408 #1 scored calcium entry signal, replicate 1 = 4.03e7; calcium entry signal, replicate 2 = 4.18e7; resting calcium signal, replicate 1 = 1.98e7; resting calcium signal, replicate 2 = 2.02e7; inactive. Silencing of CG34408 #2 came out at: calcium entry signal, replicate 1 = 3.89e7; calcium entry signal, replicate 2 = 6.83e7; resting calcium signal, replicate 1 = 1.91e7; resting calcium signal, replicate 2 = 3.56e7; inactive. Against CG34408 #3, the values are calcium entry signal, replicate 1 = 3.55e7; calcium entry signal, replicate 2 = 3.19e7; resting calcium signal, replicate 1 = 2.06e7; resting calcium signal, replicate 2 = 1.56e7; inactive. Against rad50, the values are calcium entry signal, replicate 1 = 3.74e7; resting calcium signal, replicate 1 = 1.93e7; inactive. For unc (uncoordinated) the deposit lists calcium entry signal, replicate 1 = 4.43e7; calcium entry signal, replicate 2 = 4.31e7; resting calcium signal, replicate 1 = 2.33e7; resting calcium signal, replicate 2 = 2.07e7; inactive.

Knock-down of bmm (brummer) resulted in: calcium entry signal, replicate 1 = 3.15e7; calcium entry signal, replicate 2 = 4.26e7; resting calcium signal, replicate 1 = 1.52e7; resting calcium signal, replicate 2 = 2.80e7; inactive. Against Rpn1 (Regulatory particle non-ATPase 1), the entry reads calcium entry signal, replicate 1 = 2.40e7; calcium entry signal, replicate 2 = 2.26e7; resting calcium signal, replicate 1 = 2.05e7; resting calcium signal, replicate 2 = 1.47e7; inactive. Knock-down of CaBP1 (calcium-binding protein 1) resulted in: calcium entry signal, replicate 1 = 3.40e7; resting calcium signal, replicate 1 = 1.89e7; inactive.
